Reference: patent US8410161B2, “Thioxanthone ring system derivatives” (National Defense Medical Center, priority 2010, dated 2013)
No dose or concentration is given here for some results.

System: 60 cancer lines
Assay: NCI cell toxicity assay of 60 cancer lines, whole panel summary
Assay type: cell-based, human
Conditions: 1.00E−5 Molar; for Growth Percent, Delta: Delta over all cell lines; for Growth Percent, Range: Range over all cell lines
Method: Then, a cell toxicity assay of the cancer lines made by National Cancer Institute will be discussed as follows. The cell toxicity assay is performed by choosing ten compounds (existing certification numbers) from the 59 compounds disclosed in the present invention first.

CCCSc1ccc2c(=O)c3ccccc3sc2c1Cl [No. 3, 4-Chloro-3-(propylthio)-9H-thioxanthen-9-one]
Growth Percent, Delta: 31.48% | Growth Percent, Range: 58.76%

O=c1c2ccccc2sc2c(Cl)c(Sc3ccccc3)ccc12 [No. 6, 4-Chloro-3-(phenylthio)-9H-thioxanthen-9-one]
Growth Percent, Delta: 23.07% | Growth Percent, Range: 45.91%

Cc1cccc(C)c1Sc1ccc2c(=O)c3ccccc3sc2c1Cl [No. 12, 4-Chloro-3-(2,6-dimethylphenylthio)-9H-thioxanthen-9-one]
Growth Percent, Delta: 15.49% | Growth Percent, Range: 26.75%

Cc1cc(C)cc(Sc2ccc3c(=O)c4ccccc4sc3c2Cl)c1 [No. 14, 4-Chloro-3-(3,5-dimethylphenylthio)-9H-thioxanthen-9-one]
Growth Percent, Delta: 16.88% | Growth Percent, Range: 36.28%

COc1cccc(Sc2ccc3c(=O)c4ccccc4sc3c2Cl)c1 [No. 16, 4-Chloro-3-(3-methoxylphenylthio)-9H-thioxanthen-9-one]
Growth Percent, Delta: 15.56% | Growth Percent, Range: 32.19%

O=c1c2ccccc2sc2c(Cl)c(SCc3ccccc3)ccc12 [No. 23, 3-(Benzylthio)-4-chloro-9H-thioxanthen-9-one]
Growth Percent, Delta: 66.12% | Growth Percent, Range: 104.00%

O=c1c2ccccc2sc2c(Cl)c(SCc3ccc(F)cc3)ccc12 [No. 24, 4-Chloro-3-(4-fluorobenzylthio)-9H-thioxanthen-9-one]
Growth Percent, Delta: 62.01% | Growth Percent, Range: 86.46%

O=c1c2ccccc2sc2c(Cl)c(SCc3ccc(Cl)cc3)ccc12 [No. 26, 4-Chloro-3-(4-chlorobenzylthio)-9H-thioxanthen-9-one]
Growth Percent, Delta: 29.58% | Growth Percent, Range: 60.22%

COc1ccc(CSc2ccc3c(=O)c4ccccc4sc3c2Cl)cc1 [No. 27, 4-Chloro-3-(4-methoxybenzylthio)-9H-thioxanthen-9-one]
Growth Percent, Delta: 24.42% | Growth Percent, Range: 46.45%

O=c1c2ccccc2sc2c(Cl)c(Sc3ccc(Cl)cc3)ccc12 [No. 29, 4-Chloro-3-(4-chlorophenylthio)-9H-thioxanthen-9-one]
Growth Percent, Delta: 46.86% | Growth Percent, Range: 83.35%
